Source: article doi:10.1101/2020.03.09.979369
Read-outs that look alike come from different tables or passages of the source. No constants are given. Whether binding was seen depends on the method and setting. Binding seen in cells or lysates may run through a third protein. Some results given as binding are weak or reduced against the parent protein; the word gives no strength.

Chains of the proteins cited; added tags and fusions are not shown.
UniProt P28659: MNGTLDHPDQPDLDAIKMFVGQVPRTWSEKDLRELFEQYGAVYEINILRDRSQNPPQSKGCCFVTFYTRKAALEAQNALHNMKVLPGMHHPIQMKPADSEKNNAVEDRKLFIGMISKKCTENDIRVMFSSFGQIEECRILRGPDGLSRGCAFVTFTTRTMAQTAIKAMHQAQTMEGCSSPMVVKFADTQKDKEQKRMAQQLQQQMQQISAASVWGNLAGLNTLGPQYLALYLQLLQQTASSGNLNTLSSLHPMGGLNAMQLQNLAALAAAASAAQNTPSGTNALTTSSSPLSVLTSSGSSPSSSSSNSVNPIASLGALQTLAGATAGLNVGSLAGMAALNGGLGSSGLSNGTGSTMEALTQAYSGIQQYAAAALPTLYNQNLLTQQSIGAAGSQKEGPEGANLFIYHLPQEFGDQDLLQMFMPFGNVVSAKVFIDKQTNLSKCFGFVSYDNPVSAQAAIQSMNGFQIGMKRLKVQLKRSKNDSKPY
UniProt Q921F2: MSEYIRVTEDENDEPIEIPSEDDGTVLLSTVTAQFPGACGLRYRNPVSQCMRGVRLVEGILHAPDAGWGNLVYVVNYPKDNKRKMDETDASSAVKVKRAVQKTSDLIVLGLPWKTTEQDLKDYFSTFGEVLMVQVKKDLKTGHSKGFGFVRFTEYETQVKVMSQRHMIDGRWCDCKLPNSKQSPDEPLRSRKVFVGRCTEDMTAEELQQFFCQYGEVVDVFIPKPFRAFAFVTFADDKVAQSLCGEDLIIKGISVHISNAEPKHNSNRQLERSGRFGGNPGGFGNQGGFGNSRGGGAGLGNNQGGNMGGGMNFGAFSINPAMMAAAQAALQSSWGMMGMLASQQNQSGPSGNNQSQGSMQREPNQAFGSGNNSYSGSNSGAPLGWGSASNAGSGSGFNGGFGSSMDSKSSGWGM

Tests used:
Test in all cases: co-IP
[1] = biological target: T1, CIZ1 (mouse (endogenous in female ESCs)) (UniProt Q8VEH2)
T1 sequence: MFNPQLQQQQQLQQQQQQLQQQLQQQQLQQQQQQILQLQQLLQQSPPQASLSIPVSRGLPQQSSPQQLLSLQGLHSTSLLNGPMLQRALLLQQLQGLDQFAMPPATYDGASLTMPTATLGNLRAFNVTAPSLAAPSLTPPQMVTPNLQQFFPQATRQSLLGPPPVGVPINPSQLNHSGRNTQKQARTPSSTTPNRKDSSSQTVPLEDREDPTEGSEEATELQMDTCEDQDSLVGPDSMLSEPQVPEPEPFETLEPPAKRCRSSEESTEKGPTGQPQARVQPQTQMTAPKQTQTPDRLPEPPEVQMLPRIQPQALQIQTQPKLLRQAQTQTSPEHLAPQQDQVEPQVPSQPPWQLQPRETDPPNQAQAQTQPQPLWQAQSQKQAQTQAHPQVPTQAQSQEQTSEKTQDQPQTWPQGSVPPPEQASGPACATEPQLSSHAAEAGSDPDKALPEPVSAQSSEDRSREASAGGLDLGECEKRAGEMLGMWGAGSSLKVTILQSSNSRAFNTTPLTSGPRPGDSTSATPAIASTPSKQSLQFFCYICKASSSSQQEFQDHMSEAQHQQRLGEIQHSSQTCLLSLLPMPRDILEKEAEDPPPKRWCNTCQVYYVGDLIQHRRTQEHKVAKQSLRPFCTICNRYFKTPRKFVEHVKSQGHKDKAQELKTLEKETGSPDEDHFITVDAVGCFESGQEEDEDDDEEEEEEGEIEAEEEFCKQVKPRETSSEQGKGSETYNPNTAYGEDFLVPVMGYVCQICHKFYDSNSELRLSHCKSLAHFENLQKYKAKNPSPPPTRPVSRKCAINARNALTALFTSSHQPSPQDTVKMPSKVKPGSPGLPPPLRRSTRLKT

[2] = biological target: CUG-Binding Protein 1 (CELF1) (mouse (endogenous in female ESCs)) (UniProt P28659)
[3] = biological target: TAR-DNA Binding Protein (TDP-43) (mouse (endogenous in female ESCs)) (UniProt Q921F2)
[4] = biological target: T1, CIZ1 (mouse (endogenous in female ESCs)); remark: listed apart in the source

Measured: binding

B1: MATRIN-3 (MATR3) (protein, UniProt Q8K310 1-846)
chain: MSKSFQQSSLGRDSQGHGRDLSAAGIGLLAAATQSLSMPASLGRMNQGTARLASLMNLGMSSSLNQQGAHSALSSASTSSHNLQSIFNIGSRGPLPLSSQHRGDTDQASNILASFGLSARDLDELSRYPEDKITPENLPQILLQLKRRRTEEGPTLSYGRDGRSATREPPYRVPRDDWEEKRHFRRDSFDDRGPSLNPVLDYDHGSRSQESGYYDRMDYEDDRLRDGERCRDDSFFGETSHNYHKFDSEYERMGRGPGPLQERSLFEKKRGAPPSSNIEDFHGLLPKGYPHLCSICDLPVHSNKEWSQHINGASHSRRCQLLLEIYPEWNPDNDTGHTMGDPFMLQQSTNPAPGILGPPPPSFHLGGPAVGPRGNLGAGNGNLQGPRHMQKGRVETSRVVHIMDFQRGKNLRYQLLQLVEPFGVISNHLILNKINEAFIEMATTEDAQAAVDYYTTTPALVFGKPVRVHLSQKYKRIKKPEGKPDQKFDQKQELGRVIHLSNLPHSGYSDSAVLKLAEPYGKIKNYILMRMKSQAFIEMETREDAMAMVDHCLKKALWFQGRCVKVDLSEKYKKLVLRIPNRGIDLLKKDKSRKRSYSPDGKESPSDKKSKTDAQKTESPAEGKEQEEKSGEDGEKDTKDDQTEQEPSMLLESEDELLVDEEEAAALLESGSSVGDETDLANLGDVSSDGKKEPSDKAVKKDPSASATSKKKLKKVDKIEELDQENEAALENGIKNEENTEPGAESAENADDPNKDTSENADGQNDENKEDYTIPDEYRIGPYQPNVPVGIDYVIPKTGFYCKLCSLFYTNEEVAKNTHCSSLPHYQKLKKFLNKLAEERRQKKET
binds: all assays above
